Experiment [1] deals with α-syt7-fl-FLAG (full-length synaptotagmin 7 α with a FLAG tag) (mouse) (UniProt Q9R0N7). In words: co-IP; anti-FLAG antibody on Dynabeads, lysate of rat hippocampal neurons expressing α-syt7-fl-FLAG; 25 mM Tris-HCl pH 7.4, 100 mM NaCl, 1 mM EGTA, 5% glycerol, 1% Triton X-100; no cross-linkers; control rabbit IgG beads; immunoblot. In general terms: In western blotting, separated proteins are transferred to a membrane and probed.

Protein sequences, listed by entry. Tags and fused reporters are not part of them. Lines headed by an entry give the natural chain unless they say otherwise; changes in a name come on top. Chains listed by the source or under a name are the forms on record and can include a tag or linker. Residues count along the entry.
UniProt Q9R0N7: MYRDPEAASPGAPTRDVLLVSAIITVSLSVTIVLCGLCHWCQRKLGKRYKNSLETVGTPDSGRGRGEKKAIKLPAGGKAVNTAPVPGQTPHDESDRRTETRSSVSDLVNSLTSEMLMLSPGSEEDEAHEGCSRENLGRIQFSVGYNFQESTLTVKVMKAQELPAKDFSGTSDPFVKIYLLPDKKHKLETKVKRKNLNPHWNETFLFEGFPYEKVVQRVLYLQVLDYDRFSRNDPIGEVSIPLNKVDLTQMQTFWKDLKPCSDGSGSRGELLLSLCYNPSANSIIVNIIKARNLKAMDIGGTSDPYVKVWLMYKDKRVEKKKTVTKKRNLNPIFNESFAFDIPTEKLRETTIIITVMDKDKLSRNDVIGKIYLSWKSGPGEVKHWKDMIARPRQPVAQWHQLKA
Halo-tagged α-syt7cyto (cytoplasmic domain of synaptotagmin 7 α, immobilised on HaloLink resin): residues 38-403 of Q9R0N7

The target in experiment [2] is Halo-tagged α-syt7cyto (cytoplasmic domain of synaptotagmin 7 α, immobilised on HaloLink resin) (mouse) (UniProt Q9R0N7). The experiment in a line: pull-down; Halo-tagged bait immobilised on HaloLink resin (7 μM bait), prey syt1-fl in DOPC proteoliposomes; 25 mM HEPES pH 7.4, 100 mM KCl, 0.2 mM EGTA or 1.2 mM Ca2+; 1 h at 25 °C; supernatants analysed by SDS-PAGE and Western blot; both purified.

No constants are given. Whether binding was seen depends on the method and setting. For some assays here: Binding seen in cells or lysates may run through a third protein. Some binding calls cover weakened binding; strength is not graded here.

For the molecule “synaptotagmin 1 (endogenous, rat hippocampal neurons) (from UniProt P21707 1-421)”, the binding entry in experiment [1] was “binds”.

B1: syt1-fl (full-length synaptotagmin 1, reconstituted into liposomes) (natural protein, rat, UniProt P21707 1-421, looked up)
chain: MVSASHPEALAAPVTTVATLVPHNATEPASPGEGKEDAFSKLKQKFMNELHKIPLPPWALIAIAIVAVLLVVTCCFCVCKKCLFKKKNKKKGKEKGGKNAINMKDVKDLGKTMKDQALKDDDAETGLTDGEEKEEPKEEEKLGKLQYSLDYDFQNNQLLVGIIQAAELPALDMGGTSDPYVKVFLLPDKKKKFETKVHRKTLNPVFNEQFTFKVPYSELGGKTLVMAVYDFDRFSKHDIIGEFKVPMNTVDFGHVTEEWRDLQSAEKEEQEKLGDICFSLRYVPTAGKLTVVILEAKNLKKMDVGGLSDPYVKIHLMQNGKRLKKKKTTIKKNTLNPYYNESFSFEVPFEQIQKVQVVVTVLDYDKIGKNDAIGKVFVGYNSTGAELRHWSDMLANPRRPIAQWHTLQVEEEVDAMLAVKK
notes: synaptotagmin 1, rat cDNA from T. C; Sudhof (Perin et al., 1990); the D374 mutation of that cDNA was corrected to glycine, so residue 374 is G; also called SUMO-syt1-fl; source: E. coli BL21(DE3), purified (with 0.9% CHAPS; cleaved from the beads with SUMO protease), reconstituted into DOPC proteoliposomes
Turning to B1, the binding entry in experiment [2] is listed as “binds”.

The record behind these values is article doi:10.1101/2025.10.27.684894, “Alternative splicing of synaptotagmin 7 regulates oligomerization and short-term synaptic plasticity” (bioRxiv, 2025).
